The other results are listed elsewhere or left out. The data scatter; read single values as rough.
Legend:
[1] = compound: ClCC(=O)N[C@@H]1CCCc2ccccc12; assay: log2 mean competition ratio of IA-DTB cysteine labelling (DMSO/compound) (log2 ratio); higher = stronger cysteine engagement by compound; conditions: treatment time: 4 h, cell line lysate: HEK293T
Experimental: (§1)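 IA-DTB competitive cysteine chemoproteomics in HEK293T RIPA lysate. Lysates were treated with compound 29 or 30 at 50 or 200 µM for 4 h, then IA-DTB (500 µM, 1 h), trypsin-digested, NeutrAvidin-enriched and analysed by diaPASEF. Competition ratio = intensity DMSO / intensity compound (n=4 treated, n=64 DMSO); binding: mean log2 CR ≥ 1 and p ≤ 0.05 plus QC filters. Target is the cysteine site.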

The chains behind the UniProt entries cited, without tags or fusion partners. Where a name states a change or a piece, a line headed by the entry shows the natural chain unless it says otherwise.
UniProt O94973, whole entry, looked up: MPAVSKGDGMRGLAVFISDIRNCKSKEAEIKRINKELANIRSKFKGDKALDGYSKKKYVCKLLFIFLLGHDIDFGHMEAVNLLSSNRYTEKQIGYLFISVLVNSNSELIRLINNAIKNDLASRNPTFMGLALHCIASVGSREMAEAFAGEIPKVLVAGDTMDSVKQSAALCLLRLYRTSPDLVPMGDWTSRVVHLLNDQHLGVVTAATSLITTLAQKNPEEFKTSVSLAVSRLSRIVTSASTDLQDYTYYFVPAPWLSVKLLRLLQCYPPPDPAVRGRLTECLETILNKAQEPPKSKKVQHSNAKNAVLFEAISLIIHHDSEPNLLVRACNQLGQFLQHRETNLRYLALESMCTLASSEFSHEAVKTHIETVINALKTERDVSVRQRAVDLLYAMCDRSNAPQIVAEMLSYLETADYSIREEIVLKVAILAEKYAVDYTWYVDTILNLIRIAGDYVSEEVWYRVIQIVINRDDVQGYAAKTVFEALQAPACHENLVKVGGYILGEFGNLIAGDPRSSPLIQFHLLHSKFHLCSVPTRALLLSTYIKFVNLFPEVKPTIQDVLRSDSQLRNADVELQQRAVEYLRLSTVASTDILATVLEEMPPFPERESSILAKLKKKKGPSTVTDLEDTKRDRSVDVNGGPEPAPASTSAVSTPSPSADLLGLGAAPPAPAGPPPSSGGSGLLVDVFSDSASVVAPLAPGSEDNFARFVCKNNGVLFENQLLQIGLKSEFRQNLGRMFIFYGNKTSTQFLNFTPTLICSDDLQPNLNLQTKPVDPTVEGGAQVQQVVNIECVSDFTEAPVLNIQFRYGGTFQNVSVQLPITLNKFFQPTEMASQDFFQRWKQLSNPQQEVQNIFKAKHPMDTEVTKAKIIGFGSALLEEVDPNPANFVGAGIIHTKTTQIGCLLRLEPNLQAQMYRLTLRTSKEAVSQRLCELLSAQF
UniProt O75179: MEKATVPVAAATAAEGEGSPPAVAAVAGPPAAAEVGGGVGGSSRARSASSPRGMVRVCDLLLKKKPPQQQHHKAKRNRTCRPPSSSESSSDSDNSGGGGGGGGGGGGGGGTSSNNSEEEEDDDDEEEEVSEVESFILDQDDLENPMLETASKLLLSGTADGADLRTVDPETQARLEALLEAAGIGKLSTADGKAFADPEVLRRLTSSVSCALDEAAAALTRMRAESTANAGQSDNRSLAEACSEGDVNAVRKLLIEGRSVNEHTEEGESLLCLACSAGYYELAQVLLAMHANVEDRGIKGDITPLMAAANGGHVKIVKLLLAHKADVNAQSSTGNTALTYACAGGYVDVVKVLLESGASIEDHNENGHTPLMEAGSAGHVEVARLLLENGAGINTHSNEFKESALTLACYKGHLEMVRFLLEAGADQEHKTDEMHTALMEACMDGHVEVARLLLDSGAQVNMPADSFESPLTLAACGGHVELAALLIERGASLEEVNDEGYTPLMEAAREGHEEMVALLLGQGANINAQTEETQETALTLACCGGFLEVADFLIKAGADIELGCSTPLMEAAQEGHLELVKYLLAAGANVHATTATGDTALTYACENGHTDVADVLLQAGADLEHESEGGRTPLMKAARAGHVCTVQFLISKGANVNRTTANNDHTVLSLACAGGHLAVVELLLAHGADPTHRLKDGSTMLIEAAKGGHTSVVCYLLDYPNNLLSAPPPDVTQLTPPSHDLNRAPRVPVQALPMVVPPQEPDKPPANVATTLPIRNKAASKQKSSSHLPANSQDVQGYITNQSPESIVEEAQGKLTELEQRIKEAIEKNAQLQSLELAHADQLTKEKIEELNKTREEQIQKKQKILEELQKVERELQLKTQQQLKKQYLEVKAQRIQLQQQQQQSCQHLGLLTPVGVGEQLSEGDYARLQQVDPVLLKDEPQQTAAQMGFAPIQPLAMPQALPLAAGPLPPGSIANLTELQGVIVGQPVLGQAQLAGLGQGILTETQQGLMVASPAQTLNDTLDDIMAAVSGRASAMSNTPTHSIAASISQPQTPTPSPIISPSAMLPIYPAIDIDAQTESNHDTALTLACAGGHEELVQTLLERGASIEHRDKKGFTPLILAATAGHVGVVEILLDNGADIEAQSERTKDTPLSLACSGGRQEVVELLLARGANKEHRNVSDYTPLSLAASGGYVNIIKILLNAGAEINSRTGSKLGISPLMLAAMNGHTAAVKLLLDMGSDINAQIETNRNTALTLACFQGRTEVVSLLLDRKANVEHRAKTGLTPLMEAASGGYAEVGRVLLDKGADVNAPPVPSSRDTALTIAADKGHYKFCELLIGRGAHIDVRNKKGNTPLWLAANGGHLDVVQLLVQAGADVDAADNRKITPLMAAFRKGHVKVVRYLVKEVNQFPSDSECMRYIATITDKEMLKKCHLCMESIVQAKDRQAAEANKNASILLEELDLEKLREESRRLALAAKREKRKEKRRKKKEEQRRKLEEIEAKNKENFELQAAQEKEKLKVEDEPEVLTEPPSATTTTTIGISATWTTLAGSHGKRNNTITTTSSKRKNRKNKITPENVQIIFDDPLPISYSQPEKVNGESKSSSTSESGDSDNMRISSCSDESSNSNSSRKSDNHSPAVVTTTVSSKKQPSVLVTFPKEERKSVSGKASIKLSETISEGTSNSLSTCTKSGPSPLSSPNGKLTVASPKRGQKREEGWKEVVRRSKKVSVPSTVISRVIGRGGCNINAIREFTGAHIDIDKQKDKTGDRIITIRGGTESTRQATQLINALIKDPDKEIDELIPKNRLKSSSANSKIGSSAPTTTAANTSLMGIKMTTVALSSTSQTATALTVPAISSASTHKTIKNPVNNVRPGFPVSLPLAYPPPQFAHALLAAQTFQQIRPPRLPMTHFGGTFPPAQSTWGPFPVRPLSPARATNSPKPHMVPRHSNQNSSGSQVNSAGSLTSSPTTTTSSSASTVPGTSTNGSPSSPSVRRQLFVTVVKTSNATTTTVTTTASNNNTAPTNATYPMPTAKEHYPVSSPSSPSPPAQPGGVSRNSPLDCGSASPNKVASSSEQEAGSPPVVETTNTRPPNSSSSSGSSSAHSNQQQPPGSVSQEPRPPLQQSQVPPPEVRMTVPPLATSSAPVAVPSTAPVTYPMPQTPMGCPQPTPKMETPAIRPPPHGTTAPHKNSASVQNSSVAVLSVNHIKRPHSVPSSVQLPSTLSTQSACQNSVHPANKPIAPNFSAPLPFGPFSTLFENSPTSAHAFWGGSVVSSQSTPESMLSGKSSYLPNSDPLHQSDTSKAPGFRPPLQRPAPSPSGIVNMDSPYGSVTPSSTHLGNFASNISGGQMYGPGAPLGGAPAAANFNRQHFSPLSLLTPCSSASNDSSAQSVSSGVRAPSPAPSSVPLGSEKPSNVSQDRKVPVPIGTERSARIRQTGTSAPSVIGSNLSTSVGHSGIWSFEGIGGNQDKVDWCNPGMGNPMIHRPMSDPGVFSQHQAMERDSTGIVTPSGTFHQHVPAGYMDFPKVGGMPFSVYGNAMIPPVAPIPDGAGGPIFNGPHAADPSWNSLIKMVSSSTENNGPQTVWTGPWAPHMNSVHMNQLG
UniProt P63010: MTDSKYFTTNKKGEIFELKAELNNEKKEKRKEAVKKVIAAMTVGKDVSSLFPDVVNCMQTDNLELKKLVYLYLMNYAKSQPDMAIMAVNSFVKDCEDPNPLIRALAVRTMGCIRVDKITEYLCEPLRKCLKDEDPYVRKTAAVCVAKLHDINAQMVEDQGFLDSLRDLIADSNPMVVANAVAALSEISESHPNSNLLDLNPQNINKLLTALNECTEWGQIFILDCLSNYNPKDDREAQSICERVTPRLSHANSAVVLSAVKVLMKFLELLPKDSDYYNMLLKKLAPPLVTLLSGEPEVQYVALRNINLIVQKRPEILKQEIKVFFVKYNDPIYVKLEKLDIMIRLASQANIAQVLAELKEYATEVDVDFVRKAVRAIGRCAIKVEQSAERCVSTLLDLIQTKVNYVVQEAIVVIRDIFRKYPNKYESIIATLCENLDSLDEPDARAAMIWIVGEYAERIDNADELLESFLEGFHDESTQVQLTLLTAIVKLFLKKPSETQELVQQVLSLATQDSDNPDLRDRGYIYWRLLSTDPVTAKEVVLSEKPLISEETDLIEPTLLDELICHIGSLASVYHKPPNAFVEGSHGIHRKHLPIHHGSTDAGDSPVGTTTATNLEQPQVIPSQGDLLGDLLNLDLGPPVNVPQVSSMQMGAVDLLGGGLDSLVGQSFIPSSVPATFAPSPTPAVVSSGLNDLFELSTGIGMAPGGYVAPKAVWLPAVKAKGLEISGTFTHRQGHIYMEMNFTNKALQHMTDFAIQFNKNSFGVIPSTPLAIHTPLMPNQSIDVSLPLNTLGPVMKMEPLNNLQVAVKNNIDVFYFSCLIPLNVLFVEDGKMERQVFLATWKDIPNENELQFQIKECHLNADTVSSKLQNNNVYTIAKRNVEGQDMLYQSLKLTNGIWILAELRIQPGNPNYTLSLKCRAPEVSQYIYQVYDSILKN
UniProt Q9NQW6: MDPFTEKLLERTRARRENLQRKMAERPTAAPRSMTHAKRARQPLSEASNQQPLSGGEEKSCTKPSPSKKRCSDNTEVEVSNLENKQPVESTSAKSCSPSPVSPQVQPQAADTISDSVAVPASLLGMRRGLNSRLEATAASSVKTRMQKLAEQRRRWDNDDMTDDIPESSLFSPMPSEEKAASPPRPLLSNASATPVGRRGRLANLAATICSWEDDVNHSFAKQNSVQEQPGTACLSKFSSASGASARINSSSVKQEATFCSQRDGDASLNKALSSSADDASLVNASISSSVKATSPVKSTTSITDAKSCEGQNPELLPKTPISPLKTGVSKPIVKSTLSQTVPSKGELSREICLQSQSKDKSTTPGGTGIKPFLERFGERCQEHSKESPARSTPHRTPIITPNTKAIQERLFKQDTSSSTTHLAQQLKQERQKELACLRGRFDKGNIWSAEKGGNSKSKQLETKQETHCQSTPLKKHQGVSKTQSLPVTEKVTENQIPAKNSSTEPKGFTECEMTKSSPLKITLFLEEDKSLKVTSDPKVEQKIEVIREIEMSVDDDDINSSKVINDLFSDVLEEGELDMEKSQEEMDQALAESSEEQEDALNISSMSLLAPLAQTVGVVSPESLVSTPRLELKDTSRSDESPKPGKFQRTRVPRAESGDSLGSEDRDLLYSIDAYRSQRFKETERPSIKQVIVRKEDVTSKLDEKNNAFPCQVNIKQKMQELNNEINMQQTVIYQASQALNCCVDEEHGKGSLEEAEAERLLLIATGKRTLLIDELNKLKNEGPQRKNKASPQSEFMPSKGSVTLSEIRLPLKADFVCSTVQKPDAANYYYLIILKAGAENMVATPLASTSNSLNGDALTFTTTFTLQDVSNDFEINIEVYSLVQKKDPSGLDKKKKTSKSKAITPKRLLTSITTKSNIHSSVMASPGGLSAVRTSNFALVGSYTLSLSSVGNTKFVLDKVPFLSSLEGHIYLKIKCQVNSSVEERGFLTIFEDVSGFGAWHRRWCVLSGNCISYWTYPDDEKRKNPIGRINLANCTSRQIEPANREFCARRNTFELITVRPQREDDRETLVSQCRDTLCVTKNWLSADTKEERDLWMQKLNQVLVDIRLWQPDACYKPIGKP
UniProt Q8N8A2: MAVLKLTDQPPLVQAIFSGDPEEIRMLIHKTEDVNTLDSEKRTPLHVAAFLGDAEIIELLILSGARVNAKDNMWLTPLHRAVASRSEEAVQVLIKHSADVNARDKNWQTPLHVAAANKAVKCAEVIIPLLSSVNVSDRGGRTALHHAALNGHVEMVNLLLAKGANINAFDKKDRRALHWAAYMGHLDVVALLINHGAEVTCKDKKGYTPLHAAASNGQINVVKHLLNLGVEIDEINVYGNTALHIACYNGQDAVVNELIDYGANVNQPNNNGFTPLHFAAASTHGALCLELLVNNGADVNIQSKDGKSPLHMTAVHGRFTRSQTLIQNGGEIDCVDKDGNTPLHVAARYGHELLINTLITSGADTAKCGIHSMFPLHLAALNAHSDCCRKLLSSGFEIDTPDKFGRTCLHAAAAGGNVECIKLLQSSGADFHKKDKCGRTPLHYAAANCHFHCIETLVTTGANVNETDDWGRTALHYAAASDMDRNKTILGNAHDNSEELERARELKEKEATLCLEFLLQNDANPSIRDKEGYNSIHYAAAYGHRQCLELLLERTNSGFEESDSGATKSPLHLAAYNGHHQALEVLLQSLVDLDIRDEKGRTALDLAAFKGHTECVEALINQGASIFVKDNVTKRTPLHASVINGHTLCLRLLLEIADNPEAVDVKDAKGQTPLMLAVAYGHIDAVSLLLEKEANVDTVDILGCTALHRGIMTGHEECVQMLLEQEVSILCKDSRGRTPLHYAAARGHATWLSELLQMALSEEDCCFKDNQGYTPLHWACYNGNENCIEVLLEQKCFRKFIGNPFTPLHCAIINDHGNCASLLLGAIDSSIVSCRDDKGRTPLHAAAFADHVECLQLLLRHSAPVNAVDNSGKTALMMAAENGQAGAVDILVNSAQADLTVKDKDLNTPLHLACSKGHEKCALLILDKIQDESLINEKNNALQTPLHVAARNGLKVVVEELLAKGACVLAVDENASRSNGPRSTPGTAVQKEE

[2] = compound: ClCC(=O)N[C@H]1CCCc2ccccc12; assay: as above; conditions: treatment time: 4 h, cell line lysate: HEK293T
Experimental: as §1

| Target | log2 mean competition ratio ([1]; 50 µM) | log2 mean competition ratio ([1]; 200 µM) | log2 mean competition ratio ([2]; 50 µM) | log2 mean competition ratio ([2]; 200 µM) |
| --- | --- | --- | --- | --- |
| APLP2 C343 (UniProt Q06481) | -0.183 | -0.0677 | -0.212 | -0.0862 |
| ARFRP1 C141 (UniProt Q13795) | -0.0676 | -0.235 | 0.0468 | 0.0897 |
| AP2A2 C282 (UniProt O94973) | -0.0353 | 0.0414 | -0.279 | -0.0221 |
| ARHGEF18 C918 (UniProt Q6ZSZ5) | 0.165 | 0.204 | -0.0852 | 0.0106 |
| ANKMY2 C205 (UniProt Q8IV38) | -0.111 | 0.15 | 0.111 | 0.204 |
| AS3MT C85 | 0.125 | 0.19 | -0.078 | 0.446 |
| AR C519 | 0.0116 | 0.163 | 0.127 | 0.202 |
| APOBEC3D C261 (UniProt Q96AK3) | -0.18 | -0.143 | -0.0827 | -0.164 |
| ANKRD17 C1158 (UniProt O75179) | 0.152 | 0.0454 | -0.177 | -0.191 |
| AP2A2 C491 (UniProt O94973) | 0.011 | -0.119 | -0.0715 | -0.157 |
| AP2B1 C144 (UniProt P63010) | -0.148 | -0.183 | 0.155 | -0.0423 |
| ARAF C549 (UniProt P10398) | 0.0292 | 0.122 | -0.0315 | -0.0844 |
| ANLN C260 (UniProt Q9NQW6) | -0.209 | -0.00554 | 0.232 | 0.0587 |
| ARHGEF12 C1528 (UniProt Q9NZN5) | 0.615 | 0.357 | 0.16 | 0.153 |
| ASH1L C227 | -0.0204 | 0.227 | -0.00373 | 0.145 |
| ARHGAP17 C190 (UniProt Q68EM7) | -0.312 | 0.133 | -0.589 | -0.221 |
| AP2B1 C129 (UniProt P63010) | 0.441 | 0.202 | 0.183 | 0.163 |
| ARL6IP4 C36 (UniProt Q66PJ3) | 0.129 | -0.0972 | -0.0127 | -0.142 |
| ANKRD27 C882 (UniProt Q96NW4) | -0.0929 | 0.251 | -0.325 | -0.0902 |
| AP2A2 C396 (UniProt O94973) | -0.0751 | -0.248 | -0.226 | 0.0111 |
| APAF1 C203 (UniProt O14727) | -0.139 | -0.0428 | 0.166 | 0.0169 |
| ANKMY2 C390 (UniProt Q8IV38) | -0.452 | -0.15 | -0.041 | -0.118 |
| AP2A1 C970 (UniProt O95782) | 0.474 | 0.102 | 0.374 | 0.0968 |
| ANKRD52 C169 (UniProt Q8NB46) | 0.0844 | -0.247 | 0.14 | -0.174 |

Nothing new here: an excerpt of the list.

| Target | log2 mean competition ratio ([1]; 50 µM) | log2 mean competition ratio ([1]; 200 µM) | log2 mean competition ratio ([2]; 50 µM) | log2 mean competition ratio ([2]; 200 µM) |
| --- | --- | --- | --- | --- |
| ANKRD17 C1158 (UniProt O75179) | 0.152 | 0.0454 | -0.177 | -0.191 |
| AP2A2 C491 (UniProt O94973) | 0.011 | -0.119 | -0.0715 | -0.157 |
| AP2B1 C144 (UniProt P63010) | -0.148 | -0.183 | 0.155 | -0.0423 |

Continued:

| Target | log2 mean competition ratio ([1]; 50 µM) | log2 mean competition ratio ([1]; 200 µM) | log2 mean competition ratio ([2]; 50 µM) | log2 mean competition ratio ([2]; 200 µM) |
| --- | --- | --- | --- | --- |
| ANKRD17 C1690 (UniProt O75179) | -0.301 | -0.179 | 0.143 | 0.0958 |
| ARPC1B C70 (UniProt O15143) | -0.0581 | -0.0727 | -0.206 | 0.0779 |
| ANXA7 C298 (UniProt P20073) | 0.131 | -0.162 | 0.178 | -0.072 |
| ANXA7 C327 (UniProt P20073) | 0.271 | -0.31 | -0.172 | -0.169 |
| ARIH1 C269 (UniProt Q9Y4X5) | 0.0268 | 0.293 | -0.376 | 0.0243 |
| AP3D1 C348 (UniProt O14617) | -0.304 | -0.133 | -0.532 | -0.106 |
| ASCC1 C189 (UniProt Q8N9N2) | -0.322 | 0.078 | -0.639 | -0.244 |
| ASMTL C333 (UniProt O95671) | -0.0791 | 0.149 | 0.00504 | 0.213 |
| ANKRD44 C967 (UniProt Q8N8A2) | -0.305 | -0.193 | -0.166 | 0.0777 |
| AP2A1 C283 (UniProt O95782) | 0.641 | -0.0133 | -0.0924 | -0.00671 |
| ARID2 C1362 (UniProt Q68CP9) | 0.267 | 0.121 | -0.319 | -0.0452 |
| ARFGAP2 C97 (UniProt Q8N6H7) | -0.135 | 0.152 | -0.151 | 0.169 |
| ANXA11 C294 (UniProt P50995) | 0.0548 | 0.332 | 0.0129 | -0.0299 |
| APBA2 C319 (UniProt Q99767) | 0.113 | 0.27 | -0.492 | 0.307 |
| AP1G1 C400 | -0.0229 | -0.237 | -0.167 | -0.28 |
| ARHGEF6 C119 (UniProt Q15052) | -0.176 | 0.0742 | -0.272 | -0.00564 |
| ANLN C309 (UniProt Q9NQW6) | 0.106 | -0.0229 | -0.113 | 0.0764 |
| AP2B1 C123 (UniProt P63010) | -0.116 | 0.0237 | -0.374 | -0.0802 |
| ARHGAP5 C727 (UniProt Q13017) | -0.0804 | 0.2 | 0.32 | 0.246 |
| ARFGAP1 C351 (UniProt Q8N6T3) | -0.487 | 0.211 | -0.314 | 0.147 |
| APAF1 C761 (UniProt O14727) | 0.0627 | -0.0557 | -0.427 | 0.0186 |
| ASH2L C207 (UniProt Q9UBL3) | 0.362 | -0.0606 | -0.364 | -0.313 |
| ANLN C71 (UniProt Q9NQW6) | 0.0363 | 0.0167 | 0.443 | -0.0251 |
| ANKRD50 C639 (UniProt Q9ULJ7) | -0.246 | -0.036 | -0.119 | -0.0923 |

— the supplement of paper PMC11732987, “Enantioselective OTUD7B fragment discovery through chemoproteomics screening and high-throughput optimisation” (Communications Chemistry, 2025)
